# The list shows a part of the results. Many values rest on one well or one pass, so single values are uncertain.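 The apoptosis fraction was the count of cleaved-PARP antibody-stained nuclei relative to all DNA-stained nuclei, imaged in 1,536-well plates. Screening doses were set so most cells survived, and baseline and induced cleaved-PARP levels vary greatly across cell lines.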
# What was measured:
# Experiment in all cases: cleaved PARP positive nuclei fraction relative to DMSO control; melanoma cells; higher = more apoptosis
# Details in all cases: library dose: low library concentration; 72 h
# MZ2-MEL = tested on: MZ2-MEL
# MeWo = tested on: MeWo
# RPMI7951 = tested on: RPMI7951
# RVH-421 = tested on: RVH-421
# SkMel28 = tested on: SkMel28
# SkMel2 = tested on: SkMel2
# SkMel30 = tested on: SkMel30
# SkMel5 = tested on: SkMel5
# UACC257 = tested on: UACC257
# UACC62 = tested on: UACC62
# WM115 = tested on: WM115
# WM1716 = tested on: WM1716
# WM1745 = tested on: WM1745
# WM3526 = tested on: WM3526
# WM3619 = tested on: WM3619
# WM451Lu = tested on: WM451Lu
Compound,cleaved PARP positive nuclei fraction (MZ2-MEL) [%],cleaved PARP positive nuclei fraction (MeWo) [%],cleaved PARP positive nuclei fraction (RPMI7951) [%],cleaved PARP positive nuclei fraction (RVH-421) [%],cleaved PARP positive nuclei fraction (SkMel28) [%],cleaved PARP positive nuclei fraction (SkMel2) [%],cleaved PARP positive nuclei fraction (SkMel30) [%],cleaved PARP positive nuclei fraction (SkMel5) [%],cleaved PARP positive nuclei fraction (UACC257) [%],cleaved PARP positive nuclei fraction (UACC62) [%],cleaved PARP positive nuclei fraction (WM115) [%],cleaved PARP positive nuclei fraction (WM1716) [%],cleaved PARP positive nuclei fraction (WM1745) [%],cleaved PARP positive nuclei fraction (WM3526) [%],cleaved PARP positive nuclei fraction (WM3619) [%],cleaved PARP positive nuclei fraction (WM451Lu) [%]
"Cn1c(=O)n(-c2ccc(C(C)(C)C#N)cc2)c2c3cc(-c4cnc5ccccc5c4)ccc3ncc21 + Oc1nc(-c2ccc(C(F)(F)F)cc2)nc2c1CSCC2 [XAV939] (first compound 0.004 µM, partner dose 2 µM)",62.4,94.4,74.4,469,144,84.2,81.6,86.5,46.6,1310,46.8,224,115,92.9,109,135
"O=C(O)[C@@H]1[O][Sb](=[O])([O][Sb]2(=[O])[O][C@H]([C@H](O)CO)[C@H](O)[C@H](C(=O)O)[O]2)[O][C@H]([C@H](O)CO)[C@@H]1O (some centres undefined) [stibogluconate] + COc1cc(Nc2ncc(F)c(Nc3ccc4c(n3)NC(=O)C(C)(C)O4)n2)cc(OC)c1OC [Tamatinib] (first compound 2 µM, partner dose 0.4 µM)",187,280,75.5,94.4,62.1,134,186,146,215,126,51.3,62.8,161,66.9,98.6,102
"C[C@@H](Oc1cc(-c2cnn(C3CCNCC3)c2)cnc1N)c1c(Cl)ccc(F)c1Cl [Crizotinib] + C=CCn1c(=O)c2cnc(Nc3ccc(N4CCN(C)CC4)cc3)nc2n1-c1cccc(C(C)(C)O)n1 [MK1775] (first compound 0.2 µM, partner dose 0.02 µM)",55.5,73.8,58.6,47.1,268,39.2,68.7,78.9,54.2,146,224,87.8,106,65,137,313
"CN1CCN(c2ccc3nc(-c4c(N)c5c(F)cccc5[nH]c4=O)[nH]c3c2)CC1 [Dovitinib] + OCCn1cc(-c2cnc3nnn(Cc4ccc5ncccc5c4)c3n2)cn1 [PF04217903] (first compound 0.1 µM, partner dose 1 µM)",161,114,78.3,46.5,89.1,137,265,194,60,234,144,76.4,81.5,66.2,88.1,84
"Nc1ncn([C@H]2C[C@H](O)[C@@H](CO)O2)c(=O)n1 [decitabine] + COc1cc2ncnc(Nc3ccc(Oc4ccccc4)cc3)c2cc1OC [SrcI1] (first compound 0.1 µM, partner dose 2 µM)",47.5,74.7,31,117,132,42.4,112,62.9,217,153,86.2,99.9,98.2,35.4,87.9,182
"O=C(O)[C@@H]1[O][Sb](=[O])([O][Sb]2(=[O])[O][C@H]([C@H](O)CO)[C@H](O)[C@H](C(=O)O)[O]2)[O][C@H]([C@H](O)CO)[C@@H]1O (some centres undefined) [stibogluconate] + COc1cc(N2CCC(N3CCN(C)CC3)CC2)ccc1Nc1ncc(Cl)c(Nc2ccccc2S(=O)(=O)C(C)C)n1 [NVP-TAE684] (first compound 2 µM, partner dose 0.08 µM)",91.5,101,34.9,84.7,147,181,51.8,164,109,54.3,131,116,98.3,82.9,95.5,53.8
"C=C(c1ccc(C(=O)O)cc1)c1cc2c(cc1C)C(C)(C)CCC2(C)C [Bexarotene] + COc1cc(Nc2ncc(F)c(Nc3ccc4c(n3)NC(=O)C(C)(C)O4)n2)cc(OC)c1OC [Tamatinib] (first compound 2 µM, partner dose 0.4 µM)",114,263,109,61,96.5,164,70.1,241,73.2,112,62.1,123,124,159,101,70.9
"C=C(c1ccc(C(=O)O)cc1)c1cc2c(cc1C)C(C)(C)CCC2(C)C [Bexarotene] + CCc1ccc(CCOc2ccc(CC3SC(=O)NC3=O)cc2)nc1 [pioglitazone] (first compound 2 µM, partner dose 2 µM)",116,73.5,82.9,39.9,24.7,176,40.5,168,83.1,83.3,10.1,47.3,86.7,219,79.8,87.3
"CNC(=O)c1cc(Oc2ccc(NC(=O)Nc3ccc(Cl)c(C(F)(F)F)c3)cc2)ccn1 [sorafenib] + O=C(O)C(=O)Nc1sc2c(c1C(=O)O)CCNC2 [TCS401] (first compound 0.4 µM, partner dose 1.66667 µM)",87,34.1,164,142,98.9,107,246,75.9,23.8,479,35.1,436,95.2,81.2,98.5,32
"CC(C)C[C@H](NC(=O)[C@H](Cc1ccccc1)NC(=O)c1cnccn1)B(O)O [Bortezomib] + NCC(=O)Nc1ccc(-n2nc(C(F)(F)F)cc2-c2ccc3c(ccc4ccccc43)c2)cc1 [OSU03012] (first compound 0.001 µM, partner dose 1 µM)",99.2,98.1,185,80.2,109,168,120,36.6,133,63.5,50,305,190,614,584,364
"CNC(=O)c1cc(Oc2ccc(NC(=O)Nc3ccc(Cl)c(C(F)(F)F)c3)cc2)ccn1 [sorafenib] + COc1cc2ncnc(Nc3ccc(Oc4ccccc4)cc3)c2cc1OC [SrcI1] (first compound 0.4 µM, partner dose 2 µM)",110,263,100,123,109,91.1,33.5,76.5,69.4,97.3,110,291,119,32.5,94,38.4
"O=C(O)c1ccc2c(c1)nc(Nc1cccc(Cl)c1)c1ccncc12 + N#Cc1c(O)c2c(-c3ccc(-c4ccccc4O)cc3)csc2[nH]c1=O [A769662] (first compound 0.4 µM, partner dose 2 µM)",194,43.2,138,62.2,49.6,126,132,74.9,104,69.4,40.9,355,97.2,94.5,81.6,37.3
"Cn1c(=O)n(-c2ccc(C(C)(C)C#N)cc2)c2c3cc(-c4cnc5ccccc5c4)ccc3ncc21 + COc1cc2ncnc(Nc3ccc(Oc4ccccc4)cc3)c2cc1OC [SrcI1] (first compound 0.004 µM, partner dose 2 µM)",83,137,59.5,82.5,228,28.9,128,65,118,450,239,72.7,92.7,92.2,124,47.7
"Nc1nc(F)nc2c1ncn2[C@@H]1O[C@H](CO)[C@@H](O)[C@@H]1O [fludarabine] + O=C(CCCCCCC(=O)Nc1ccccc1)NO [vorinostat] (first compound 0.2 µM, partner dose 0.08 µM)",60.9,648,47.7,44.8,43.9,457,461,1010,141,38.4,70.4,74.2,93.4,1500,106,124
"CC(C)C[C@H](NC(=O)[C@H](Cc1ccccc1)NC(=O)c1cnccn1)B(O)O [Bortezomib] + O=c1cc(-c2cccc3c2Sc2ccccc2S3)oc(N2CCOCC2)c1 [KU55933] (first compound 0.001 µM, partner dose 1 µM)",217,110,64.4,133,260,45,136,73.8,366,149,148,1280,185,108,405,180
"CCCS(=O)(=O)Nc1ccc(F)c(C(=O)c2c[nH]c3ncc(Cl)cc23)c1F + CCCCCCCCCCCC1=C(O)C(=O)C=C(O)C1=O [Embelin] (first compound 0.08 µM, partner dose 1.2 µM)",151,130,132,141,48.4,63.2,26.5,62.7,86.6,638,140,47.5,90.8,92.1,237,79.1
"O=C(O)c1ccc2c(c1)nc(Nc1cccc(Cl)c1)c1ccncc12 + COc1ccc(-c2ccc3c(N4CCOCC4)nc(N4C[C@@H](C)O[C@@H](C)C4)nc3n2)cc1CO [KU0063794] (first compound 0.4 µM, partner dose 0.02 µM)",113,108,72.3,93.6,61.3,55.7,43.5,183,184,155,108,74,97.4,79.4,83.6,78.8
"O=C(O)[C@@H]1[O][Sb](=[O])([O][Sb]2(=[O])[O][C@H]([C@H](O)CO)[C@H](O)[C@H](C(=O)O)[O]2)[O][C@H]([C@H](O)CO)[C@@H]1O (some centres undefined) [stibogluconate] + CC1(C)NC(=O)N(c2ccc([N+](=O)[O-])c(C(F)(F)F)c2)C1=O [nilutamide] (first compound 2 µM, partner dose 1 µM)",122,86.3,54.8,97.8,244,87.7,67.6,188,96.5,39.3,48.3,76.1,160,66.5,87.6,219
"Nc1ccn([C@@H]2O[C@H](CO)[C@@H](O)C2(F)F)c(=O)n1 [gemcitabine] + CCN(CC)CCCCNc1ncc2cc(-c3cc(OC)cc(OC)c3)c(NC(=O)NC(C)(C)C)nc2n1 [PD173074] (first compound 0.0004 µM, partner dose 0.1 µM)",145,34.1,66.7,136,107,33.7,24.9,73.1,21.3,129,54.6,24.1,98.4,55.9,128,167

# In another format: results already given.
Compound	cleaved PARP positive nuclei fraction (MZ2-MEL) [%]	cleaved PARP positive nuclei fraction (MeWo) [%]	cleaved PARP positive nuclei fraction (RPMI7951) [%]	cleaved PARP positive nuclei fraction (RVH-421) [%]	cleaved PARP positive nuclei fraction (SkMel28) [%]	cleaved PARP positive nuclei fraction (SkMel2) [%]	cleaved PARP positive nuclei fraction (SkMel30) [%]	cleaved PARP positive nuclei fraction (SkMel5) [%]	cleaved PARP positive nuclei fraction (UACC257) [%]	cleaved PARP positive nuclei fraction (UACC62) [%]	cleaved PARP positive nuclei fraction (WM115) [%]	cleaved PARP positive nuclei fraction (WM1716) [%]	cleaved PARP positive nuclei fraction (WM1745) [%]	cleaved PARP positive nuclei fraction (WM3526) [%]	cleaved PARP positive nuclei fraction (WM3619) [%]	cleaved PARP positive nuclei fraction (WM451Lu) [%]
O=C(O)c1ccc2c(c1)nc(Nc1cccc(Cl)c1)c1ccncc12 + N#Cc1c(O)c2c(-c3ccc(-c4ccccc4O)cc3)csc2[nH]c1=O [A769662] (first compound 0.4 µM, partner dose 2 µM)	194	43.2	138	62.2	49.6	126	132	74.9	104	69.4	40.9	355	97.2	94.5	81.6	37.3
Cn1c(=O)n(-c2ccc(C(C)(C)C#N)cc2)c2c3cc(-c4cnc5ccccc5c4)ccc3ncc21 + COc1cc2ncnc(Nc3ccc(Oc4ccccc4)cc3)c2cc1OC [SrcI1] (first compound 0.004 µM, partner dose 2 µM)	83	137	59.5	82.5	228	28.9	128	65	118	450	239	72.7	92.7	92.2	124	47.7

# Reference: the supplement of paper PMC4604168 (melanoma cell lines)
